Reference: BindingDB's records for doi:10.1038/347146a0 (U. 109, 1990)

Sequences of proteins named here, by UniProt entry; tags and fusion partners are left off.
UniProt P19020, whole entry: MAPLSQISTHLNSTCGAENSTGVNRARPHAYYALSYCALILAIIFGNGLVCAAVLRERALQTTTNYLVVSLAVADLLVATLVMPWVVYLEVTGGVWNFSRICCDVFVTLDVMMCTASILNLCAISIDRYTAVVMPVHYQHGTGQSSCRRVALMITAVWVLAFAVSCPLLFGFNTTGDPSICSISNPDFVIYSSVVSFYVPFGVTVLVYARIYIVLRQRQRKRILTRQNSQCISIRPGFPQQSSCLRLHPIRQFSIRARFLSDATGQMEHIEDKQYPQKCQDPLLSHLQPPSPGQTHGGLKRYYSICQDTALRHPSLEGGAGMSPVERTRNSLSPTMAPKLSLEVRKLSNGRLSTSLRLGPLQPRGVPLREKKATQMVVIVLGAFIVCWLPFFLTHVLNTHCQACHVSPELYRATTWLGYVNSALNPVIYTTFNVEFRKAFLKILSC

Target: D(3) dopamine receptor (Rattus norvegicus, UniProt P19020)

## CSc1ccc2c(c1)N(CC[C@@H]1CCCCN1C)c1ccccc1S2 [10-[2-(1-Methyl-piperidin-2-yl)-ethyl]-2-methylsulfanyl-10H-phenothiazine (thioridazine)]
  Ki: 7.8 nM
